Source: the supplement of paper PMC6078165
The reference is the same well before dosing, and untreated signal decays as well.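 The tumor cells are basal-like or mesenchymal-like triple-negative breast cancer lines cultured without fibroblasts. Reduced red signal indicates lost mitochondrial integrity, serving as a proxy for apoptotic death.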

How the values were obtained:
Assay in all cases: relative JC-1 red fluorescence (viability) vs pre-drug, monoculture (fraction); higher = more viable cancer cells
Settings in all cases: coculture fibroblast: none (monoculture)
[1] = test system: BT20
Description: (§1)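 JC-1 labelled TNBC cells grown in monoculture (density kept equal with unlabelled cancer cells) in 384-well plates in FluoroBrite medium, treated with one of 42 anticancer drugs at 0.1, 1, 10 or 100 uM. JC-1 red fluorescence (mitochondrial integrity, surrogate of apoptotic death) was read by plate reader every 8 h for 72 h. Values are normalised to each well's pre-drug value, with background from alamethicin. The stock of one drug was tenfold lower, so its dose labels may be too high. Monoculture values are repeated alongside each fibroblast plate and are averaged here.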

[2] = test system: Hs578T
Description: as §1

[3] = test system: MDAMB231
Description: as §1

[4] = test system: MDAMB468
Description: as §1

CO[C@@]12[C@H](COC(N)=O)C3=C(C(=O)C(C)=C(N)C3=O)N1C[C@@H]1N[C@@H]12 [Mitomycin C]
relative JC-1 red fluorescence
Settings | 8 h | 16 h | 24 h | 32 h | 40 h | 48 h | 56 h | 64 h | 72 h
[1], 0.1 µM | 0.946 | 0.889 | 0.761 | 0.689 | 0.654 | 0.621 | 0.597 | 0.567 | 0.562
[1], 1 µM | 0.894 | 0.801 | 0.789 | 0.733 | 0.691 | 0.659 | 0.63 | 0.605 | 0.585
[1], 10 µM | 0.907 | 0.84 | 0.735 | 0.646 | 0.581 | 0.536 | 0.512 | 0.49 | 0.477
[1], 100 µM | 0.744 | 0.601 | 0.739 | 0.691 | 0.662 | 0.675 | 0.656 | 0.67 | 0.672
[2], 0.1 µM | 0.8288 | 0.728 | 0.694 | 0.648 | 0.604 | 0.597 | 0.577 | 0.583 | 0.584
[2], 1 µM | 0.809 | 0.6783 | 0.65 | 0.567 | 0.519 | 0.497 | 0.479 | 0.481 | 0.477
[2], 10 µM | 0.836 | 0.75 | 0.668 | 0.598 | 0.543 | 0.497 | 0.475 | 0.464 | 0.45
[2], 100 µM | 0.6564 | 0.58 | 0.664 | 0.566 | 0.548 | 0.548 | 0.548 | 0.571 | 0.574
[3], 0.1 µM | 0.7 | 0.7062 | 0.504 | 0.563 | 0.512 | 0.48 | 0.435 | 0.445 | 0.438
[3], 1 µM | 0.693 | 0.67 | 0.585 | 0.584 | 0.528 | 0.508 | 0.476 | 0.476 | 0.475
[3], 10 µM | 0.7265 | 0.7418 | 0.586 | 0.625 | 0.5941 | 0.553 | 0.522 | 0.534 | 0.528
[3], 100 µM | 0.6004 | 0.573 | 0.624 | 0.554 | 0.542 | 0.585 | 0.594 | 0.647 | 0.651
[4], 0.1 µM | 0.891 | 0.844 | 0.8 | 0.705 | 0.667 | 0.631 | 0.59 | 0.566 | 0.547
[4], 1 µM | 0.872 | 0.7568 | 0.78 | 0.727 | 0.691 | 0.708 | 0.7 | 0.685 | 0.69
[4], 10 µM | 0.8995 | 0.818 | 0.715 | 0.618 | 0.559 | 0.503 | 0.46 | 0.428 | 0.417
[4], 100 µM | 0.566 | 0.608 | 0.603 | 0.551 | 0.518 | 0.535 | 0.51 | 0.513 | 0.518

O=C(CCCCCCC(=O)Nc1ccccc1)NO [Vorinostat]
relative JC-1 red fluorescence
Settings | 8 h | 16 h | 24 h | 32 h | 40 h | 48 h | 56 h | 64 h | 72 h
[1], 0.1 µM | 0.95 | 0.824 | 0.751 | 0.6731 | 0.6226 | 0.5886 | 0.56 | 0.543 | 0.527
[1], 1 µM | 0.9226 | 0.8651 | 0.7626 | 0.6881 | 0.647 | 0.615 | 0.584 | 0.563 | 0.544
[1], 10 µM | 0.947 | 0.871 | 0.728 | 0.653 | 0.612 | 0.585 | 0.556 | 0.53 | 0.51
[1], 100 µM | 0.948 | 0.884 | 0.788 | 0.69 | 0.647 | 0.624 | 0.558 | 0.509 | 0.479
[2], 0.1 µM | 0.849 | 0.728 | 0.718 | 0.66 | 0.657 | 0.659 | 0.649 | 0.661 | 0.662
[2], 1 µM | 0.8368 | 0.743 | 0.636 | 0.561 | 0.511 | 0.498 | 0.47 | 0.473 | 0.479
[2], 10 µM | 0.8321 | 0.7044 | 0.591 | 0.499 | 0.441 | 0.416 | 0.388 | 0.392 | 0.385
[2], 100 µM | 0.8677 | 0.7366 | 0.66 | 0.561 | 0.52 | 0.505 | 0.488 | 0.504 | 0.508
[3], 0.1 µM | 0.76368 | 0.7068 | 0.73 | 0.6557 | 0.6343 | 0.645 | 0.6201 | 0.6526 | 0.6785
[3], 1 µM | 0.725 | 0.705 | 0.578 | 0.625 | 0.607 | 0.592 | 0.575 | 0.6 | 0.61
[3], 10 µM | 0.718 | 0.672 | 0.615 | 0.643 | 0.635 | 0.642 | 0.631 | 0.673 | 0.674
[3], 100 µM | 0.7461 | 0.71 | 0.654 | 0.6361 | 0.621 | 0.632 | 0.612 | 0.637 | 0.636
[4], 0.1 µM | 0.8956 | 0.81 | 0.739 | 0.673 | 0.625 | 0.611 | 0.575 | 0.565 | 0.557
[4], 1 µM | 0.8646 | 0.788 | 0.702 | 0.615 | 0.553 | 0.538 | 0.505 | 0.498 | 0.496
[4], 10 µM | 0.8854 | 0.739 | 0.618 | 0.521 | 0.471 | 0.456 | 0.426 | 0.418 | 0.409
[4], 100 µM | 0.915 | 0.795 | 0.65 | 0.508 | 0.452 | 0.424 | 0.379 | 0.359 | 0.354
